# PubChem BioAssay AID1159578, Peter MacCallum Cancer Centre, 2015
# Purpose: 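Genome-wide hunt for genes controlling movement of lymphatic endothelial cells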 (primary screen)
# Cell system: human lymphatic endothelial cells
# Reagent: siRNA pool against human genes, 40 nM
# Timing: 48 h after transfection
# Measured: 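High-content imaging of dye-stained cells in a scratch assay measures filled wound area and nuclei per well; duplicate means given as ratio to mock and robust z-score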
# Direction: migration robust z-score: higher = faster migration into the scratch; nuclei per well: higher = more cells in the well
# Active means: 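Migration changed when robust z exceeds 2 or falls below -2 and mean nuclei number is at least 3300; otherwise not called changed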
# Meaning of the calls: active = migration changed; inactive = no migration change, or too few cells
# In all, the deposit lists about 18,000 reagents; below is a part drawn at random. About 1,030 of them (5.7%) were called active. 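Inactive calls also include pools with fewer than 3300 nuclei, whose migration was not assessed.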 The raw values are shown without normalisation. Not all columns of the deposit are shown.
gene knocked down,migration robust z-score,migration class with cell-count check,"nuclei per well, duplicate mean",outcome
PCIF1 (phosphorylated CTD interacting factor 1),0.35,migration z between -2 and 2; enough cells,6084,inactive
SIK3 (SIK family kinase 3),1.02,migration z between -2 and 2; enough cells,4103,inactive
DGKI (diacylglycerol kinase iota),-0.29,migration z between -2 and 2; enough cells,5069,inactive
ACVR2A (activin A receptor type 2A),-0.28,migration z between -2 and 2; enough cells,5476,inactive
"GIMAP7 (GTPase, IMAP family member 7)",-0.86,migration z between -2 and 2; enough cells,4531,inactive
RAB3GAP1 (RAB3 GTPase activating protein catalytic subunit 1),1.49,migration z between -2 and 2; enough cells,6503,inactive
MARCHF4 (membrane associated ring-CH-type finger 4),0.7,migration z between -2 and 2; enough cells,5883,inactive
HACD3 (3-hydroxyacyl-CoA dehydratase 3),0.32,migration z between -2 and 2; enough cells,6214,inactive
GOLPH3 (golgi phosphoprotein 3),-1.94,migration z between -2 and 2; enough cells,3960,inactive
FAM124B (family with sequence similarity 124 member B),-0.02,migration z between -2 and 2; enough cells,6268,inactive
ABHD8 (abhydrolase domain containing 8),1.66,migration z between -2 and 2; enough cells,5732,inactive
NARS1 (asparaginyl-tRNA synthetase 1),0.42,migration z between -2 and 2; enough cells,5415,inactive
DDX41 (DEAD-box helicase 41),-0.7,migration z between -2 and 2; enough cells,5182,inactive
C1QL1 (complement C1q like 1),1.21,migration z between -2 and 2; enough cells,6278,inactive
CCT8L2 (chaperonin containing TCP1 subunit 8 like 2),-0.7,migration z between -2 and 2; enough cells,6426,inactive
"B4GALT3 (beta-1,4-galactosyltransferase 3)",0.11,migration z between -2 and 2; enough cells,5632,inactive
KIF26A (kinesin family member 26A),-0.57,migration z between -2 and 2; enough cells,6148,inactive
PSMG2 (proteasome assembly chaperone 2),-1.47,migration z between -2 and 2; enough cells,5556,inactive
TRIM49B (tripartite motif containing 49B),1.66,migration z between -2 and 2; enough cells,5690,inactive
CTTN (cortactin),-0.66,migration z between -2 and 2; enough cells,5288,inactive
EVI5L (ecotropic viral integration site 5 like),0.99,migration z between -2 and 2; enough cells,6576,inactive
KCNIP4 (potassium voltage-gated channel interacting protein 4),-0.36,migration z between -2 and 2; enough cells,5864,inactive
ITIH6 (inter-alpha-trypsin inhibitor heavy chain family member 6),0.64,migration z between -2 and 2; enough cells,6266,inactive
"PIN1 (peptidylprolyl cis/trans isomerase, NIMA-interacting 1)",-1.04,migration z between -2 and 2; enough cells,4917,inactive
"DDAH2 (DDAH family member 2, ADMA-independent)",-1.94,migration z between -2 and 2; enough cells,5018,inactive
OR12D3 (olfactory receptor family 12 subfamily D member 3),0.58,migration z between -2 and 2; enough cells,5986,inactive
ABCB10 (ATP binding cassette subfamily B member 10),-0.76,migration z between -2 and 2; enough cells,6080,inactive
AKAP14 (A-kinase anchoring protein 14),0.26,migration z between -2 and 2; enough cells,4676,inactive
EPCIP (exosomal polycystin 1 interacting protein),-0.04,migration z between -2 and 2; enough cells,4898,inactive
OSBP (oxysterol binding protein),0.52,migration z between -2 and 2; enough cells,5654,inactive
PIGV (phosphatidylinositol glycan anchor biosynthesis class V),-0.77,migration z between -2 and 2; enough cells,6356,inactive
LMTK3 (lemur tail kinase 3),-1.53,migration z between -2 and 2; enough cells,4868,inactive
SYCP3 (synaptonemal complex protein 3),-0.05,migration z between -2 and 2; enough cells,4506,inactive
KLRC3 (killer cell lectin like receptor C3),-1.6,migration z between -2 and 2; enough cells,6247,inactive
FKBP14 (FKBP prolyl isomerase 14),0.68,migration z between -2 and 2; enough cells,6612,inactive
GLB1L (galactosidase beta 1 like),0.46,migration z between -2 and 2; enough cells,6340,inactive
"MUC21 (mucin 21, cell surface associated)",1.75,migration z between -2 and 2; enough cells,6782,inactive
AMN1 (antagonist of mitotic exit network 1 homolog),2.66,migration z above 2; enough cells,6892,active
IQCJ (IQ motif containing J),-1.36,migration z between -2 and 2; enough cells,7422,inactive
"EMSY (EMSY transcriptional repressor, BRCA2 interacting)",-1.23,under 3300 nuclei; migration not judged,2348,inactive
PSTPIP2 (proline-serine-threonine phosphatase interacting protein 2),-1.53,under 3300 nuclei; migration not judged,3266,inactive
"IGLL3P (immunoglobulin lambda like polypeptide 3, pseudogene)",-0.71,migration z between -2 and 2; enough cells,5725,inactive
PIK3CG,0.08,migration z between -2 and 2; enough cells,4702,inactive
FMN2 (formin 2),4.34,migration z above 2; enough cells,6490,active
PSTPIP1 (proline-serine-threonine phosphatase interacting protein 1),-1.07,migration z between -2 and 2; enough cells,4870,inactive
"CLCA3P (chloride channel accessory 3, pseudogene)",1.04,migration z between -2 and 2; enough cells,6192,inactive
"RAB5C (RAB5C, member RAS oncogene family)",-0.52,migration z between -2 and 2; enough cells,6016,inactive
CIRBP (cold inducible RNA binding protein),-1.38,migration z between -2 and 2; enough cells,5003,inactive
LOC652436 (retired record),-0.62,migration z between -2 and 2; enough cells,4849,inactive
ARRDC4 (arrestin domain containing 4),0.22,migration z between -2 and 2; enough cells,6482,inactive
ZNF280B (zinc finger protein 280B),0.31,migration z between -2 and 2; enough cells,4718,inactive
"TNNC1 (troponin C1, slow skeletal and cardiac type)",0.29,migration z between -2 and 2; enough cells,4728,inactive
EGLN3 (egl-9 family hypoxia inducible factor 3),-1.98,migration z between -2 and 2; enough cells,3413,inactive
TTC5 (tetratricopeptide repeat domain 5),-0.56,migration z between -2 and 2; enough cells,4524,inactive
COBL (cordon-bleu WH2 repeat protein),0.18,migration z between -2 and 2; enough cells,4679,inactive
TNFRSF10D (TNF receptor superfamily member 10d),-1.66,migration z between -2 and 2; enough cells,4241,inactive
RUMY4 (RUMY family member 4),0.29,migration z between -2 and 2; enough cells,6244,inactive
LAT (linker for activation of T cells),0.15,migration z between -2 and 2; enough cells,5120,inactive
SLC30A7,0.1,migration z between -2 and 2; enough cells,7448,inactive
SHC4 (SHC adaptor protein 4),-0.69,migration z between -2 and 2; enough cells,5178,inactive
RIMS2 (regulating synaptic membrane exocytosis 2),-0.48,migration z between -2 and 2; enough cells,4431,inactive
HEXB (hexosaminidase subunit beta),-0.1,migration z between -2 and 2; enough cells,4457,inactive
NOVA2 (NOVA alternative splicing regulator 2),-1.36,migration z between -2 and 2; enough cells,5831,inactive
KCNK13 (potassium two pore domain channel subfamily K member 13),-0.8,migration z between -2 and 2; enough cells,4839,inactive
OR10AD1 (olfactory receptor family 10 subfamily AD member 1),-0.64,migration z between -2 and 2; enough cells,5404,inactive
TGFBR3 (transforming growth factor beta receptor 3),0.36,migration z between -2 and 2; enough cells,5846,inactive
SPC25 (SPC25 component of NDC80 kinetochore complex),-0.44,migration z between -2 and 2; enough cells,8709,inactive
CDR2 (cerebellar degeneration related protein 2),0.36,migration z between -2 and 2; enough cells,5078,inactive
DRC12 (dynein regulatory complex subunit 12 homolog),1.36,migration z between -2 and 2; enough cells,5054,inactive
PPIP5K2 (diphosphoinositol pentakisphosphate kinase 2),-1.35,migration z between -2 and 2; enough cells,5419,inactive
TRIM67 (tripartite motif containing 67),0.57,migration z between -2 and 2; enough cells,6285,inactive
CCDC59 (coiled-coil domain containing 59),-1.51,migration z between -2 and 2; enough cells,4755,inactive
FUT9 (fucosyltransferase 9),-0.3,migration z between -2 and 2; enough cells,6582,inactive

5 of these entries in another layout.
gene knocked down | migration robust z-score | migration class with cell-count check | nuclei per well, duplicate mean | outcome
ABCB10 (ATP binding cassette subfamily B member 10) | -0.76 | migration z between -2 and 2; enough cells | 6080 | inactive
AKAP14 (A-kinase anchoring protein 14) | 0.26 | migration z between -2 and 2; enough cells | 4676 | inactive
EPCIP (exosomal polycystin 1 interacting protein) | -0.04 | migration z between -2 and 2; enough cells | 4898 | inactive
OSBP (oxysterol binding protein) | 0.52 | migration z between -2 and 2; enough cells | 5654 | inactive
PIGV (phosphatidylinositol glycan anchor biosynthesis class V) | -0.77 | migration z between -2 and 2; enough cells | 6356 | inactive
